# The whole screen tested about 360,000 compounds, of which about 9,100 (2.5%) were called active. This list was built around the results that the source calls inconclusive (neither active nor inactive); the mix of calls is not that of the screen. Cut-off read from the data, not from the text of the source: active = max response below about -50%; inconclusive = no clear call, values can overlap the other calls; inactive = above that.
# The chains behind the UniProt entries cited, without tags or fusion partners.
# UniProt P35462, whole entry, looked up: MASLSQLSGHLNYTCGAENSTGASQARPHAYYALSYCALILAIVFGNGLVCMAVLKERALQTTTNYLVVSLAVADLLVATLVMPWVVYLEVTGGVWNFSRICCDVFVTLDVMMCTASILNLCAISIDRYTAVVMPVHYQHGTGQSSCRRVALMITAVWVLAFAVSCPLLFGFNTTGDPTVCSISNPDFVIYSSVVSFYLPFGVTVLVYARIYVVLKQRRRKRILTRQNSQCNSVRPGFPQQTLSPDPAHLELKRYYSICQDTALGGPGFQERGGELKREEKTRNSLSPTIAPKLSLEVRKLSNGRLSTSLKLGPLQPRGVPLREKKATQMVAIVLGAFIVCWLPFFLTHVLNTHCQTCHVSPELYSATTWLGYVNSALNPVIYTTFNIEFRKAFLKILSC
# Target: D(3) dopamine receptor (Homo sapiens) (UniProt P35462)
# Assay: qHTS of D3 Dopamine Receptor Antagonist: qHTS
# Details: D3R cells, DiscoveRx beta-arrestin luminescence, antagonist mode; hits give low values
# Method in brief: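 Cells expressing the human receptor were seeded at 1500 cells/well, incubated overnight at 37 degrees C in 5% CO2, then exposed to library compounds with dopamine controls for 90 minutes at 37 degrees C before luminescent detection.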
# % is set by controls: 0 for no effect and ±100 for the full control effect.
row,SMILES,"max response, negative = inhibition"
1,O=C(Nc1cccc(F)c1)N1CCN(C/C=C/c2ccccc2)CC1,inconclusive: -32.2%
2,CSc1cccc(-c2nnc(NC(=O)c3cccc(N4C(=O)CCC4=O)c3)o2)c1,inconclusive: -30.4%
3,N#Cc1c2n(c3c(=O)n(Cc4ccc(Cl)cc4)cnc13)CCCCC2,inconclusive: -41.4%
4,CCCC1C(=O)Nc2ccccc2N1C(=O)c1ccc(C(C)(C)C)cc1 (configuration not stated),inactive: -16.2%
5,FC(F)(F)c1nnc2ccc(N3CCCC3)nn12,inactive: -11.1%
6,O=C(Nc1ccccc1)c1nnsc1S(=O)c1ccc(Cl)cc1 (configuration not stated),active: -58.9%
7,COc1ccc(C(=O)Oc2cccc3cccnc23)cc1[N+](=O)[O-],inconclusive: -48.9%
8,COc1ccc(NC(=O)NCCCN2CCc3ccccc3C2)cc1,active: -108%
9,Cc1[nH]c2ccccc2c1C1=CC(=O)C=CC1=O,inconclusive: -42.6%
10,Brc1ccc(OCc2nc(-c3ccccn3)n[nH]2)cc1,inactive: -3.75%
11,CC(C)NC(=O)C(C)N1CCN(S(=O)(=O)c2ccc3ccccc3c2)CC1 (configuration not stated),inconclusive: -31.1%
12,CC1CCN(C(=O)c2ccc(-n3cnnn3)cc2)CC1,inconclusive: -44.1%
13,COc1ccc(Nc2nc(NCc3ccco3)nc(N/N=C/c3ccccc3)n2)cc1,active: -50.6%
14,O=C(NNC(=S)NCc1ccccc1)c1ccccc1OC(F)F,inconclusive: -38%
15,COc1ccc(-c2nnc3ccc(SC(C(C)=O)C(C)=O)nn23)cc1OC,inconclusive: -31%
16,CCn1c(=O)cc(OCC(=O)NCCCN2CCC(C)CC2)c2ccccc21,inconclusive: -39.4%
17,Cc1ccc(S(=O)(=O)c2nc(S(=O)(=O)c3ccccc3)sc2N2CCN(C)CC2)cc1,active: -85.8%
18,COc1cccc(C(=O)OCCN2CCOCC2)c1,inactive: 7.52%
19,O=C(NC1CCN(Cc2ccccc2)CC1)c1ccccc1OCc1ccccc1,active: -99.1%
20,CCC(C)[C@H](NC(=O)[C@@H]1Cc2c([nH]c3ccccc23)C2c3ccccc3C(=O)N21)C(=O)NCC1CCCO1 (some centres not stated),inactive: 0%
21,O=C(Cn1ncc(Cl)c(Cl)c1=O)N1CCN(S(=O)(=O)c2ccc3ccccc3c2)CC1,inconclusive: -46.7%
22,Cc1ccccc1OCC(=O)NCCN1CCCC1,inconclusive: -39.6%

row,SMILES,"max response, negative = inhibition"
1,CC(=O)c1cccc(NC(=O)c2ccc(NC(=O)CC3SC(N4CCCCC4)=NC3=O)cc2)c1 (configuration not stated),inactive: 17.2%
2,CCOC(=O)c1nn(-c2c(C)n(C)n(-c3ccccc3)c2=O)cc1O,inconclusive: -42.3%
3,CCOc1ccc(C2CC(=O)N(Nc3ccc([N+](=O)[O-])cc3[N+](=O)[O-])C2=O)cc1 (configuration not stated),inconclusive: -31.2%
4,O=C(NCc1ccncc1)Nc1cccc([N+](=O)[O-])c1,inconclusive: -30.4%
5,CC(C)CC1Nc2ncnc(N3CCCCC3)c2N(Cc2ccccc2)C1=O (configuration not stated),inactive: -4.22%
6,Cn1c(-c2cccs2)nc2ccccc21,inactive: 3.06%
7,FC(F)Oc1ccc(/C=N/n2c(Cc3ccc(Br)cc3)n[nH]c2=S)cc1,inconclusive: -33.6%
8,CCOc1ccc(S(=O)(=O)Nc2cccc(C(=O)NCC(c3ccco3)N3CCCC3)c2)cc1 (configuration not stated),inconclusive: -30.7%
9,O=c1[nH]c(CN2CCN(c3ccccc3O)CC2)nc2scc(-c3ccccc3Cl)c12,inactive: -0.893%
10,Cc1ccc2cc(CCNC(=O)C(C)(C)C)c(=O)[nH]c2c1,inconclusive: -45.5%
11,CN(c1ccccc1C(=O)NCc1ccco1)S(C)(=O)=O,inactive: -3.93%
12,COc1ccc(C(CCN2CCCC(C)C2)c2c(OC)cc(OC)c3c(-c4ccccc4)cc(=O)oc23)cc1 (configuration not stated),active: -53.2%
13,CCN1CCN(c2nc3sc4c(c3c3ncnn23)CC(C)CC4)CC1 (configuration not stated),inconclusive: -33.8%
14,O=C(CC(=O)Nc1cccnc1)Nc1cccnc1,inconclusive: -40.5%
15,Cc1ccc(Cl)cc1N1CCN(C(=O)CNC(=O)c2ccc(Br)o2)CC1,inconclusive: -32.3%
16,Cc1cc(N2CCN(C)CC2)nc2ccc(NC(=S)NCCCN3CCc4ccccc4C3)cc12,active: -84.1%
17,CSc1ccc(C(O)c2ncc(-c3ccc(F)cc3)[nH]2)cc1 (configuration not stated),inactive: 3.18%
18,O=S(=O)(c1ccccc1)N(Cc1nc(-c2ccccc2)no1)C1CCCCC1,active: -52.8%
19,CCCS(=O)(=O)N1CCN(Cc2ccccc2OCC)CC1,inconclusive: -46.8%
20,OCc1nc2ccccc2n1CCCOc1ccc(Br)cc1,inconclusive: -38.2%
21,O=C(NCCN1CCc2ccccc2C1)C1CC(=O)N(C2CCCC2)C1 (configuration not stated),inconclusive: -37.1%
22,CCCCCCCCCCC[N+](C)(C)CC/C=C1/c2ccccc2Sc2ccc(Cl)cc21,active: -124%

row,SMILES,"max response, negative = inhibition"
1,CCN(CC)Cc1csc(C(N)=O)c1,active: -52.8%
2,O=C(NC(c1ccc(Cl)cc1)c1ccsc1)C1CCN(Cc2cccc(C(F)(F)F)c2)CC1 (configuration not stated),active: -92.6%
3,Cc1cccc2c1-c1sc(C(=O)NCCCN3CCCC(C)C3)cc1CO2 (configuration not stated),active: -75.8%
4,COc1ccc([C@H]2CC(=O)C[C@@H](CCn3cc(Cc4ccccc4)nn3)O2)cc1,inactive: 20.1%
5,Nc1nc(=S)[nH]c2c1C1(CCCCC1)Cc1ccccc1-2,inconclusive: -31.9%
6,O=C(c1cccc(S(=O)(=O)N2CCOCC2)c1)N(Cc1ccc(F)cc1)Cc1ccco1,inactive: 9.19%
7,C[C@@H](NC(=O)OC(C)(C)C)c1nnc(S(=O)(=O)Cc2ccccc2)o1,active: -110%
8,Cc1ccccc1/C(N)=N/OC(=O)N1c2ccccc2Sc2ccccc21,inconclusive: -45.3%
9,O=C(c1ccc(Br)cc1)C(CN1CCOCC1)c1ccccc1 (configuration not stated),active: -87.8%
10,CC1(c2ccccc2)NC(=O)N(CC(=O)N2CCOCC2)C1=O (configuration not stated),inconclusive: -33.1%
11,CCOc1nc(C#N)nc(N2CCCCC2)n1,inconclusive: -31.5%
12,Cc1cccc(CN2C[C@]34CC[C@@H](C[C@@H]3S2(=O)=O)O4)c1,inactive: 5.54%
13,Cc1cccc(NC(=O)CCC(=O)N/N=C/c2cc([N+](=O)[O-])ccc2O)c1,inconclusive: -40.4%
14,CN(CC(=O)Nc1ccc(Cl)cc1)c1ccc(S(=O)(=O)N2CCCCC2)cc1[N+](=O)[O-],inconclusive: -30.9%
15,CCN(CC)CCn1c(NS(=O)(=O)c2ccc(Cl)cc2)nc2ccccc21,inconclusive: -49%
16,Cc1ccc(S(=O)(=O)N2CC3(O)CN(C(=O)OC(C)C)N(C(=O)OC(C)C)CC3(OC(=O)NCC3CCCCC3)C2)cc1 (configuration not stated),inactive: 22.7%
17,COc1cccc(-n2nnc3c(=O)n(Cc4c(F)cccc4Cl)cnc32)c1,inactive: -3.67%
18,CCNC(=S)NCc1ccc2[nH]c(C)cc2c1,inconclusive: -37.1%
19,COc1ccc(-c2cc(C#N)nc(N3CCNCC3)n2)cc1,inconclusive: -45.5%
20,O=C1NC[C@H](CCCCN2C[C@H](Cc3ccccc3)N(CCC3CCCCC3)C(=O)C2=O)N(CCC2CCCCC2)C1=O,inactive: -0.296%
21,Cc1ccc(OCCOCCNC(C)C)c(Br)c1,active: -74.7%
22,O=C(NNc1cc(C(F)(F)F)nc2ccccc12)Nc1cccc(Cl)c1,inactive: -10.5%

row,SMILES,"max response, negative = inhibition"
1,CC(=O)Nc1ccc(NC(=O)c2cccc(Oc3ccccc3)c2)cc1,active: -50.7%
2,CCc1nnc(N/N=C/c2ccccc2Cl)n1N,active: -63.2%
3,Cn1c(O)c(N=NC(=O)CNC(=O)/C=C/c2ccccc2)c2ccccc21,inconclusive: -39.5%
4,CC1=C(C(=O)N2CCOCC2)CC(CC(=O)NCCCN(C)C)C(=O)N1CCCN1CCCC1=O (configuration not stated),inconclusive: -36.9%
5,O=C(c1ccc(F)cc1)N1C2CCC1CC(O)(c1ccc(F)cc1)C2 (configuration not stated),active: -54.2%
6,Cn1c(=O)c2c(nc(CN3CCN(c4ccccc4)CC3)n2CCN2CCOCC2)n(C)c1=O,inconclusive: -33.5%
7,CSc1nnc(-c2ccc([N+](=O)[O-])cc2)o1,inconclusive: -30.2%
8,Cc1nn(CC(=O)c2ccccc2)c(=O)c2nn(-c3ccccc3F)c(C)c12,inconclusive: -38.1%
9,CN(C)C(C)(C)C#CCC(c1ccccc1)c1ccccc1,inconclusive: -45.2%
10,COCCCn1c(=NC(C)=O)c(C#N)cc2c(=O)n3cccc(C)c3nc21,inactive: 11%
11,COc1cc(NS(=O)(=O)c2ccc(NC(=O)CN3C(=O)c4ccccc4C3=O)cc2)nc(OC)n1,inconclusive: -44.6%
12,COc1ccc(-c2oc3ncn(CCN4CCOCC4)c(=N)c3c2-c2ccc(OC)cc2)cc1,inconclusive: -33.9%
13,C/C(=N/NC(=O)C(O)(c1ccccc1)c1ccccc1)c1ccc([N+](=O)[O-])o1,inactive: -18.5%
14,Cc1ccc(S(=O)(=O)N(C)c2ccc(OCC(=O)NCc3ccco3)cc2)cc1,inconclusive: -36.8%
15,CC(=O)c1cccc(NC(=O)COc2cc3oc(=O)c(CC(C)O)c(C)c3cc2Cl)c1 (configuration not stated),inactive: 1.92%
16,O=C1CN(Cc2ccccc2)C(=NCc2ccco2)S1,inconclusive: -32.9%
17,CCOC(=O)CCNC(=O)N1CCCC(C(=O)c2ccccc2SC)C1 (configuration not stated),inconclusive: -45.7%
18,CCn1cc(CN2CCC(n3nccc3NC(=O)c3cccc(F)c3)CC2)c(C)n1,inconclusive: -46.5%
19,Cc1cccc(Nc2ccc([N+](=O)[O-])cn2)c1,inconclusive: -49.7%
20,Cc1ccc(S(=O)(=O)N(C(=O)c2ccncc2)c2ccc(OC(=O)c3ccncc3)c3ccccc23)cc1,inconclusive: -30.2%
21,CCN(CC)c1nc(NN)nc(Nc2ccc(C)c(Cl)c2)n1,active: -79.4%

# Among those listed so far, these contain a CF3 group.
row,SMILES,"max response, negative = inhibition"
5,FC(F)(F)c1nnc2ccc(N3CCCC3)nn12,inactive: -11.1%
2,O=C(NC(c1ccc(Cl)cc1)c1ccsc1)C1CCN(Cc2cccc(C(F)(F)F)c2)CC1 (configuration not stated),active: -92.6%
22,O=C(NNc1cc(C(F)(F)F)nc2ccccc12)Nc1cccc(Cl)c1,inactive: -10.5%
